This is one part of the list. The calls rarely recur for the same compound in another form.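 Kinases were expressed as nanoluciferase fusions in K562 cells and luminescence was read every 4 h between 2 and 18 h as percent of control, DMSO set to 100% and a positive control to 0%. A time point counts as decreased when the signal drops significantly (2 sigma). The hit call is the authors' own, does not follow from the count of time points alone, and its rule is not shown.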
Tests used:
Conditions in all cases: K562; 2-18 h
STK38 = STK38 (UniProt Q15208); test: kinase-Nluc reporter destabilization hit call (1 = scored as downregulated) (binary); higher = compound decreases kinase abundance
SYK = SYK (UniProt P43405); test: as above
TEC = TEC (UniProt P42680); test: as above
TYK2 = TYK2 (UniProt P29597); test: as above
ULK3 = ULK3 (UniProt Q6PHR2); test: as above
YES1 = YES1 (UniProt P07947); test: as above
ZAK = ZAK (UniProt Q9NYL2); test: as above
ZAP70 = ZAP70 (UniProt P43403); test: as above
ABL1 = ABL1 (UniProt P00519); test: number of time points (of 5) at which kinase-Nluc abundance scored as decreased, DMSO-normalised (count); higher = more persistent destabilization
AKT1 = AKT1 (UniProt P31749); test: as above
ALK = ALK (UniProt Q9UM73); test: as above
ARAF = ARAF (UniProt P10398); test: as above
AURKA = AURKA (UniProt O14965); test: as above
AURKB = AURKB (UniProt Q96GD4); test: as above
AURKC = AURKC (UniProt Q9UQB9); test: as above
BLK = BLK (UniProt P51451); test: as above
BMX = BMX (UniProt P51813); test: as above
BRAF = BRAF (UniProt P15056); test: as above
BRAF_V600E = test: as above
BTK = BTK (UniProt Q06187); test: as above

Chains of the proteins cited; added tags and fusions are not shown. Lines headed by an entry give the natural chain unless they say otherwise; changes in a name come on top.
UniProt Q15208: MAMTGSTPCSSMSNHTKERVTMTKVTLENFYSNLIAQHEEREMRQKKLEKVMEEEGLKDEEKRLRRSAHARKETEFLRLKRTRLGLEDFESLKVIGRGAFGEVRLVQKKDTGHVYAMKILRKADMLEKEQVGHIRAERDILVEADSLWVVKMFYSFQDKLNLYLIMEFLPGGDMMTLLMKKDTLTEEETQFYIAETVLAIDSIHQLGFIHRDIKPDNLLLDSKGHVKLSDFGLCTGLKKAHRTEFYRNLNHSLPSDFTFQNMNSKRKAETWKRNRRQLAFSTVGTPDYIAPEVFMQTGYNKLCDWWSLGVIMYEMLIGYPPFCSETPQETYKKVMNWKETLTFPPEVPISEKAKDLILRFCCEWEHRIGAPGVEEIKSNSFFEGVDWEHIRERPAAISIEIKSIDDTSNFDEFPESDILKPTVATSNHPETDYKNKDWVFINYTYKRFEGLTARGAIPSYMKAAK
UniProt P42680: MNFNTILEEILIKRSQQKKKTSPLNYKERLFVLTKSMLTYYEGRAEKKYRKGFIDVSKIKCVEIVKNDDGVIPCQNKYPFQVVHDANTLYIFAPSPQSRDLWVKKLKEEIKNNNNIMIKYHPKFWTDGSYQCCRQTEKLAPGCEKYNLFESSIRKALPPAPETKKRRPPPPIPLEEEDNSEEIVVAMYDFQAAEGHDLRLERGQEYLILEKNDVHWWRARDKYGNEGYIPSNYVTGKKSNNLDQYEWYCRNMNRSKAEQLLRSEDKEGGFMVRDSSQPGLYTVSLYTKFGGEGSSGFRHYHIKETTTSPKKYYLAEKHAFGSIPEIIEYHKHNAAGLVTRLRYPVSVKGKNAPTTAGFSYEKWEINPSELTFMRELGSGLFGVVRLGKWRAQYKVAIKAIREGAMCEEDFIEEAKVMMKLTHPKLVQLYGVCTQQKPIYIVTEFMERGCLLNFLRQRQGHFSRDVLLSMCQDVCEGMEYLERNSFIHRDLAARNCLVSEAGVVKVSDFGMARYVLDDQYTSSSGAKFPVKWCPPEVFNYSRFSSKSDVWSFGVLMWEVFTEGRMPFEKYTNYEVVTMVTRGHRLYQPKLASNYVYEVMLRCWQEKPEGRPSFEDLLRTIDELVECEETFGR
UniProt P43403: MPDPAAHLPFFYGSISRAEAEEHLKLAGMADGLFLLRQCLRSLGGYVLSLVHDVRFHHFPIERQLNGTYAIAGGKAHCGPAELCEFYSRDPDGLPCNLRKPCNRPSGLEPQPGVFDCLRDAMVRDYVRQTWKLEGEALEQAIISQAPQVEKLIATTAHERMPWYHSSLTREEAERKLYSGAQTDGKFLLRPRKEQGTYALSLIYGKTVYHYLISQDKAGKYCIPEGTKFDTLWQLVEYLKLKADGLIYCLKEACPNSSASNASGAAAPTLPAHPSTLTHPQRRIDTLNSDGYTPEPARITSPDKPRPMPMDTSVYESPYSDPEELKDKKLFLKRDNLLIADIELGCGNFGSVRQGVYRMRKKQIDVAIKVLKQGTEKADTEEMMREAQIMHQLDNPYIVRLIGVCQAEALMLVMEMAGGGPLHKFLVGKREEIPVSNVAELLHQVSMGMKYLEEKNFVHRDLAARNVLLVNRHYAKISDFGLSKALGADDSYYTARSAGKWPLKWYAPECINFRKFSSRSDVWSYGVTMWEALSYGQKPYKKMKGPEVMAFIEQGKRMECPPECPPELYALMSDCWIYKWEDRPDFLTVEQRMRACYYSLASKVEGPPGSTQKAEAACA
UniProt P31749: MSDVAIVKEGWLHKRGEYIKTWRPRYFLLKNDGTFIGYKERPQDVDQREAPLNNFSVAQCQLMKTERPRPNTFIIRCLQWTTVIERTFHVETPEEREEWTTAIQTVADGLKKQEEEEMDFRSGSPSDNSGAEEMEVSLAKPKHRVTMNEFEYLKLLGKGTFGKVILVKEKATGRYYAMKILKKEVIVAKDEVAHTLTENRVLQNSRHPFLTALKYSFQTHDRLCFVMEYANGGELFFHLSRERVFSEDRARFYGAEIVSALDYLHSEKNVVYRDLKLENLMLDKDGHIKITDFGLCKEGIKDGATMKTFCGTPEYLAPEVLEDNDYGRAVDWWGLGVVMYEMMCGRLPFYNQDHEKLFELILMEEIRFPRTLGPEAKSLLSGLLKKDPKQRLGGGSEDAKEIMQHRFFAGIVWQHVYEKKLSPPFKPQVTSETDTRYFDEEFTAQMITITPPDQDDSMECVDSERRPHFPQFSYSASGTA
UniProt Q9UM73: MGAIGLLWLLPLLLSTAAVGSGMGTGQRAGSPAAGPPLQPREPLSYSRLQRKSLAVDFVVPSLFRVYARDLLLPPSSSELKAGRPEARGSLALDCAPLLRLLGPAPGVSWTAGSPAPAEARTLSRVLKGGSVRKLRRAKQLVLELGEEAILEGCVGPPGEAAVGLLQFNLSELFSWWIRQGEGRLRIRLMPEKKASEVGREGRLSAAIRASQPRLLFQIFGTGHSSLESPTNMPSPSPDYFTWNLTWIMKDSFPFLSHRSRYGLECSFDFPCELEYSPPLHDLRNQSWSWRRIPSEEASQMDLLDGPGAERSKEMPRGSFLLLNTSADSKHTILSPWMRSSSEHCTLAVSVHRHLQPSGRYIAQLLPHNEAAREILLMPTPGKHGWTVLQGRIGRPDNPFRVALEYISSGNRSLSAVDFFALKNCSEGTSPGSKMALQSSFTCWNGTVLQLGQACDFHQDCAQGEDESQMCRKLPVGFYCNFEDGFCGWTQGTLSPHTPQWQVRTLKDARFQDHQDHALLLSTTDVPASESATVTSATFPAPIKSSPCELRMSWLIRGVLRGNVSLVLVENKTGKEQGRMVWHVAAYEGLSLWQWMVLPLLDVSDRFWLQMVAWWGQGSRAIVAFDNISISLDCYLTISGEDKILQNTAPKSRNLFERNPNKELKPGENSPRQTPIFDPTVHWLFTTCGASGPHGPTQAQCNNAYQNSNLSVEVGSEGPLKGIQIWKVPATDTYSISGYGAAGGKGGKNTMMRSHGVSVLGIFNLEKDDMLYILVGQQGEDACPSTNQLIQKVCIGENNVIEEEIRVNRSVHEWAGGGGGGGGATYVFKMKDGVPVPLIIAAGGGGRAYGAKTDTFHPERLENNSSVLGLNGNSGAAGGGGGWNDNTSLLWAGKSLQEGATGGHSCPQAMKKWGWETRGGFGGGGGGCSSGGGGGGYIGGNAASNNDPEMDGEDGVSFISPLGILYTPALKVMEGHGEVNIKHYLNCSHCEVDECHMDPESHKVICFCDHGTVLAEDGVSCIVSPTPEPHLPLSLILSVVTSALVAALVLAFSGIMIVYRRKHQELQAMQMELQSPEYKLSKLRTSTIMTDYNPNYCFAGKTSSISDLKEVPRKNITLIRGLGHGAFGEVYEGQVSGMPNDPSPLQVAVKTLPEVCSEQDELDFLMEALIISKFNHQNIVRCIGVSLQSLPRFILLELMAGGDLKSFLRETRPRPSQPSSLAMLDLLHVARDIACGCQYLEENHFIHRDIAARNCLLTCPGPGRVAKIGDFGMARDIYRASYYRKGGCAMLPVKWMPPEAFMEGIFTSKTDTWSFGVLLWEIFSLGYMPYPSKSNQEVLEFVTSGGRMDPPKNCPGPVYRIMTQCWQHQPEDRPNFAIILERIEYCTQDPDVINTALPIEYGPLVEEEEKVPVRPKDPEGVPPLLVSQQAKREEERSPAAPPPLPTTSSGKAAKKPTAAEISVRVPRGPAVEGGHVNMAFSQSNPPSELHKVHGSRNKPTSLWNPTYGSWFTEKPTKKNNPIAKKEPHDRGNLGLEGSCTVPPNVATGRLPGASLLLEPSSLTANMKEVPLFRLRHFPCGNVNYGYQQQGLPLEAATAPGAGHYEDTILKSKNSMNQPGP
UniProt P10398: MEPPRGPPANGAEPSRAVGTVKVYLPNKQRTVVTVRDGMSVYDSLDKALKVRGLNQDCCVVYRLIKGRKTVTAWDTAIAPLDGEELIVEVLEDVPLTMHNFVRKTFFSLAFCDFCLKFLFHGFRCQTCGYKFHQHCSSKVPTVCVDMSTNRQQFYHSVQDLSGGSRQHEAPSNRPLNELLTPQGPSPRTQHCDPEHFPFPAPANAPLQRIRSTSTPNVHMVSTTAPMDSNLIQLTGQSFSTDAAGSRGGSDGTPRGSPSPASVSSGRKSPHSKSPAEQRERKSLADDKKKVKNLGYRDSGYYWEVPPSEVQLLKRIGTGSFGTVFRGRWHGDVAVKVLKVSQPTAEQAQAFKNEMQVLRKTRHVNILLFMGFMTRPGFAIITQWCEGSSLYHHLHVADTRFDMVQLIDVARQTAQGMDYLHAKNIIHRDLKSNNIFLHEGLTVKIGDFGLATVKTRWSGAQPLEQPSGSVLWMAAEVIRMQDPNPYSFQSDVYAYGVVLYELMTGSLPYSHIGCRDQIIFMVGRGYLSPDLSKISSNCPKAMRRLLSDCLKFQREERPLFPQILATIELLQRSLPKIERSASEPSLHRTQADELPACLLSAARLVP
UniProt Q9UQB9: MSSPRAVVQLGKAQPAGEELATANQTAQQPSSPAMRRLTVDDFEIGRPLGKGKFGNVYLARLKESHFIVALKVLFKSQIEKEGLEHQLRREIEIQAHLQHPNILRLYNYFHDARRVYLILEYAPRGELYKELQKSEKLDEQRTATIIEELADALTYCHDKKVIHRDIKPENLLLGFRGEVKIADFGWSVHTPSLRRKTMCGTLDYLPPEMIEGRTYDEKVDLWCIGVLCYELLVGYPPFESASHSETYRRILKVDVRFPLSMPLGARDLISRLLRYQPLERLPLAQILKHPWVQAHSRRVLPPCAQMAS
UniProt P51451: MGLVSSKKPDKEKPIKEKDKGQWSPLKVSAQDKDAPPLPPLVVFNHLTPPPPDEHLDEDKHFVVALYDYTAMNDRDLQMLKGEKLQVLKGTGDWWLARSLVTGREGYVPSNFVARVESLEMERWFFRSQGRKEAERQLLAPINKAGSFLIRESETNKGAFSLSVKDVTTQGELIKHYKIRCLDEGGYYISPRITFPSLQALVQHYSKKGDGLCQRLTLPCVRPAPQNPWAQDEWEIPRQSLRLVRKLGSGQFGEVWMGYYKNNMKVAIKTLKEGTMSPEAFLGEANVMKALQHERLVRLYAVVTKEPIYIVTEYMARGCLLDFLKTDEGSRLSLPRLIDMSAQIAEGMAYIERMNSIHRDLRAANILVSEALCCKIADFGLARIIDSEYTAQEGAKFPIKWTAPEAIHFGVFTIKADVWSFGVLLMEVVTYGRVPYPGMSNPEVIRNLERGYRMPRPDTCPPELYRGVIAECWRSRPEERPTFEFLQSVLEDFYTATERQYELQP
UniProt P51813: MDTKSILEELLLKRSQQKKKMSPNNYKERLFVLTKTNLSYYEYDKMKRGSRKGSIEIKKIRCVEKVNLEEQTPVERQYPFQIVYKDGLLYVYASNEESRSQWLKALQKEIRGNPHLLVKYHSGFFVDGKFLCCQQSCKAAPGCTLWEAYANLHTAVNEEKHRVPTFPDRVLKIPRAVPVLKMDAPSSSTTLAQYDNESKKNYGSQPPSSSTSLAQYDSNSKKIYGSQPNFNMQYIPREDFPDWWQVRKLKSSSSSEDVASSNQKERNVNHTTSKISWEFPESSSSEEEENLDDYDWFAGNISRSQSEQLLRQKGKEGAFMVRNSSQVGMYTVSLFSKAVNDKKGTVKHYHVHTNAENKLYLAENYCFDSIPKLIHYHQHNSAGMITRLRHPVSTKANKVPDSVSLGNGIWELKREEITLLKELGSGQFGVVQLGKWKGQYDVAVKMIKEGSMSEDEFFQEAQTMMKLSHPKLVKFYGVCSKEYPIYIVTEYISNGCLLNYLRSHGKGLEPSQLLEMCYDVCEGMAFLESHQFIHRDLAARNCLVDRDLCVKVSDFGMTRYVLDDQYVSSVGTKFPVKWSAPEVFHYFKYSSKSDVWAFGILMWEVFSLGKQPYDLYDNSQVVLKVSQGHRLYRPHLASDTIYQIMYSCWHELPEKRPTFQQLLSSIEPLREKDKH
UniProt Q06187: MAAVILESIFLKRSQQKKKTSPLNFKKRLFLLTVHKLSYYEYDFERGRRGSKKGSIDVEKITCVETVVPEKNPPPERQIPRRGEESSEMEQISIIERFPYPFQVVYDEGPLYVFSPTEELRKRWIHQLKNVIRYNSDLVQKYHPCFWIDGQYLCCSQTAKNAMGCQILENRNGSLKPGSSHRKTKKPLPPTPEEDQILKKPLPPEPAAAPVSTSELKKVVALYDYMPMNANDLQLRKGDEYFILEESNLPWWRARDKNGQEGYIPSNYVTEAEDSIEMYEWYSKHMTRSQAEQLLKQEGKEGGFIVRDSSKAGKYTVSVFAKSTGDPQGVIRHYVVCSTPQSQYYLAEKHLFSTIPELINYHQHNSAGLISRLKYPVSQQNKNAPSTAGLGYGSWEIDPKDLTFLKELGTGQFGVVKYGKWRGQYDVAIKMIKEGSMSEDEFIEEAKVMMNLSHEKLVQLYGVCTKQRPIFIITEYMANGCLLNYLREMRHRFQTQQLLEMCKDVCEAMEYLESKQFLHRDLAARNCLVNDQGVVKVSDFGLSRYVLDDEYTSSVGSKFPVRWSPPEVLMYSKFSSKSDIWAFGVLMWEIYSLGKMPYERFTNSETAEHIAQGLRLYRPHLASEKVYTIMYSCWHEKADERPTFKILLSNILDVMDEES

CN1CCC(Nc2ncc3ncnc(Nc4ccc(F)c(Cl)c4)c3n2)CC1 [Falnidamol] (10 µM)
inactive: kinase-Nluc reporter destabilization hit call (STK38) 0 | kinase-Nluc reporter destabilization hit call (SYK) 0 | kinase-Nluc reporter destabilization hit call (TEC) 0 | kinase-Nluc reporter destabilization hit call (TYK2) 0 | kinase-Nluc reporter destabilization hit call (ULK3) 0 | kinase-Nluc reporter destabilization hit call (YES1) 0 | kinase-Nluc reporter destabilization hit call (ZAK) 0 | kinase-Nluc reporter destabilization hit call (ZAP70) 0
0: number of time points (ABL1) | number of time points (AKT1) | number of time points (ALK) | number of time points (ARAF) | number of time points (AURKA) | number of time points (AURKB) | number of time points (AURKC) | number of time points (BLK) | number of time points (BMX) | number of time points (BRAF) | number of time points (BRAF_V600E) | number of time points (BTK)

O=c1cc(N2CCOCC2)oc2c(-c3ccccc3)cccc12 (10 µM)
inactive: kinase-Nluc reporter destabilization hit call (STK38) 0 | kinase-Nluc reporter destabilization hit call (SYK) 0 | kinase-Nluc reporter destabilization hit call (TEC) 0 | kinase-Nluc reporter destabilization hit call (TYK2) 0 | kinase-Nluc reporter destabilization hit call (ULK3) 0 | kinase-Nluc reporter destabilization hit call (YES1) 0 | kinase-Nluc reporter destabilization hit call (ZAK) 0 | kinase-Nluc reporter destabilization hit call (ZAP70) 0
0: number of time points (ABL1) | number of time points (AKT1) | number of time points (ALK) | number of time points (ARAF) | number of time points (AURKA) | number of time points (AURKB) | number of time points (AURKC) | number of time points (BLK) | number of time points (BMX) | number of time points (BRAF) | number of time points (BRAF_V600E) | number of time points (BTK)

COc1nccc(-c2c(-c3ccc(F)cc3)ncn2C2CCC(O)CC2)n1 (centres undefined) (10 µM)
0: number of time points (ABL1) | number of time points (AKT1) | number of time points (ALK) | number of time points (ARAF) | number of time points (AURKA) | number of time points (AURKB) | number of time points (AURKC) | number of time points (BLK) | number of time points (BMX) | number of time points (BRAF) | number of time points (BRAF_V600E)
inactive: kinase-Nluc reporter destabilization hit call (STK38) 0 | kinase-Nluc reporter destabilization hit call (SYK) 0 | kinase-Nluc reporter destabilization hit call (TEC) 0 | kinase-Nluc reporter destabilization hit call (TYK2) 0 | kinase-Nluc reporter destabilization hit call (ULK3) 0 | kinase-Nluc reporter destabilization hit call (YES1) 0 | kinase-Nluc reporter destabilization hit call (ZAK) 0 | kinase-Nluc reporter destabilization hit call (ZAP70) 0

CC(C)CC(=O)Nc1n[nH]c2c1CN(C(=O)C1CCN(C)CC1)C2(C)C (2.5 µM)
3: number of time points (AURKA)
2: number of time points (ALK)
0: number of time points (AKT1) | number of time points (ARAF) | number of time points (AURKC) | number of time points (BLK) | number of time points (BMX) | number of time points (BRAF) | number of time points (BTK)
1: number of time points (ABL1) | number of time points (AURKB) | number of time points (BRAF_V600E)
inactive: kinase-Nluc reporter destabilization hit call (STK38) 0 | kinase-Nluc reporter destabilization hit call (SYK) 0 | kinase-Nluc reporter destabilization hit call (TEC) 0 | kinase-Nluc reporter destabilization hit call (TYK2) 0 | kinase-Nluc reporter destabilization hit call (ULK3) 0 | kinase-Nluc reporter destabilization hit call (YES1) 0 | kinase-Nluc reporter destabilization hit call (ZAK) 0 | kinase-Nluc reporter destabilization hit call (ZAP70) 0

COc1cc(OC)c(F)c(COc2cnc(Nc3cnn(CCO)c3)nc2)c1F (2.5 µM)
2: number of time points (BMX)
3: number of time points (ABL1)
0: number of time points (AKT1) | number of time points (ARAF) | number of time points (AURKA) | number of time points (AURKB) | number of time points (AURKC) | number of time points (BLK) | number of time points (BRAF_V600E) | number of time points (BTK)
inactive: kinase-Nluc reporter destabilization hit call (STK38) 0 | kinase-Nluc reporter destabilization hit call (SYK) 0 | kinase-Nluc reporter destabilization hit call (TEC) 0 | kinase-Nluc reporter destabilization hit call (TYK2) 0 | kinase-Nluc reporter destabilization hit call (ULK3) 0 | kinase-Nluc reporter destabilization hit call (YES1) 0 | kinase-Nluc reporter destabilization hit call (ZAK) 0 | kinase-Nluc reporter destabilization hit call (ZAP70) 0
1: number of time points (ALK) | number of time points (BRAF)

CNC(=O)c1cccc(-c2ccc3c(N4CCOC[C@@H]4C)nc(N4CCOC[C@@H]4C)nc3n2)c1 [Vistusertib] (2.5 µM)
2: number of time points (BRAF)
inactive: kinase-Nluc reporter destabilization hit call (STK38) 0 | kinase-Nluc reporter destabilization hit call (SYK) 0 | kinase-Nluc reporter destabilization hit call (TEC) 0 | kinase-Nluc reporter destabilization hit call (TYK2) 0 | kinase-Nluc reporter destabilization hit call (ULK3) 0 | kinase-Nluc reporter destabilization hit call (YES1) 0 | kinase-Nluc reporter destabilization hit call (ZAK) 0 | kinase-Nluc reporter destabilization hit call (ZAP70) 0
1: number of time points (ALK)
5: number of time points (ABL1)
0: number of time points (AKT1) | number of time points (ARAF) | number of time points (AURKC) | number of time points (BTK)
4: number of time points (AURKA) | number of time points (AURKB) | number of time points (BMX) | number of time points (BRAF_V600E)
3: number of time points (BLK)

COc1cc(C)c(Sc2cnc(NC(=O)c3ccc(CNC(C)C(C)(C)C)cc3)s2)cc1C(=O)N1CCN(C(C)=O)CC1 (centres undefined) (2.5 µM)
0: number of time points (ABL1) | number of time points (AKT1) | number of time points (ALK) | number of time points (ARAF) | number of time points (AURKA) | number of time points (AURKB) | number of time points (AURKC) | number of time points (BLK) | number of time points (BMX) | number of time points (BRAF) | number of time points (BRAF_V600E) | number of time points (BTK)
inactive: kinase-Nluc reporter destabilization hit call (STK38) 0 | kinase-Nluc reporter destabilization hit call (SYK) 0 | kinase-Nluc reporter destabilization hit call (TEC) 0 | kinase-Nluc reporter destabilization hit call (TYK2) 0 | kinase-Nluc reporter destabilization hit call (ULK3) 0 | kinase-Nluc reporter destabilization hit call (YES1) 0 | kinase-Nluc reporter destabilization hit call (ZAK) 0 | kinase-Nluc reporter destabilization hit call (ZAP70) 0

Nc1ncnc2c1c(-c1cccc(OCc3ccccc3)c1)cn2C1CC(CN2CCCC2)C1 (centres undefined) (2.5 µM)
0: number of time points (ABL1) | number of time points (AKT1) | number of time points (ALK) | number of time points (ARAF) | number of time points (AURKA) | number of time points (AURKB) | number of time points (AURKC) | number of time points (BLK) | number of time points (BMX) | number of time points (BRAF) | number of time points (BRAF_V600E) | number of time points (BTK)
inactive: kinase-Nluc reporter destabilization hit call (STK38) 0 | kinase-Nluc reporter destabilization hit call (SYK) 0 | kinase-Nluc reporter destabilization hit call (TEC) 0 | kinase-Nluc reporter destabilization hit call (TYK2) 0 | kinase-Nluc reporter destabilization hit call (ULK3) 0 | kinase-Nluc reporter destabilization hit call (YES1) 0 | kinase-Nluc reporter destabilization hit call (ZAK) 0 | kinase-Nluc reporter destabilization hit call (ZAP70) 0

2 compounds drawn at random from those above, as already listed:
Nc1ncnc2c1c(-c1cccc(OCc3ccccc3)c1)cn2C1CC(CN2CCCC2)C1 (centres undefined) (2.5 µM)
0: number of time points (ABL1) | number of time points (AKT1) | number of time points (ALK) | number of time points (ARAF) | number of time points (AURKA) | number of time points (AURKB) | number of time points (AURKC) | number of time points (BLK) | number of time points (BMX) | number of time points (BRAF) | number of time points (BRAF_V600E) | number of time points (BTK)
inactive: kinase-Nluc reporter destabilization hit call (STK38) 0 | kinase-Nluc reporter destabilization hit call (SYK) 0 | kinase-Nluc reporter destabilization hit call (TEC) 0 | kinase-Nluc reporter destabilization hit call (TYK2) 0 | kinase-Nluc reporter destabilization hit call (ULK3) 0 | kinase-Nluc reporter destabilization hit call (YES1) 0 | kinase-Nluc reporter destabilization hit call (ZAK) 0 | kinase-Nluc reporter destabilization hit call (ZAP70) 0

COc1cc(OC)c(F)c(COc2cnc(Nc3cnn(CCO)c3)nc2)c1F (2.5 µM)
2: number of time points (BMX)
3: number of time points (ABL1)
0: number of time points (AKT1) | number of time points (ARAF) | number of time points (AURKA) | number of time points (AURKB) | number of time points (AURKC) | number of time points (BLK) | number of time points (BRAF_V600E) | number of time points (BTK)
inactive: kinase-Nluc reporter destabilization hit call (STK38) 0 | kinase-Nluc reporter destabilization hit call (SYK) 0 | kinase-Nluc reporter destabilization hit call (TEC) 0 | kinase-Nluc reporter destabilization hit call (TYK2) 0 | kinase-Nluc reporter destabilization hit call (ULK3) 0 | kinase-Nluc reporter destabilization hit call (YES1) 0 | kinase-Nluc reporter destabilization hit call (ZAK) 0 | kinase-Nluc reporter destabilization hit call (ZAP70) 0
1: number of time points (ALK) | number of time points (BRAF)

Next entries follow.

Cc1c[nH]c(/C=C2\C(=O)Nc3ccccc32)c1CCC(=O)O (10 µM)
inactive: kinase-Nluc reporter destabilization hit call (STK38) 0 | kinase-Nluc reporter destabilization hit call (SYK) 0 | kinase-Nluc reporter destabilization hit call (TEC) 0 | kinase-Nluc reporter destabilization hit call (TYK2) 0 | kinase-Nluc reporter destabilization hit call (ULK3) 0 | kinase-Nluc reporter destabilization hit call (YES1) 0 | kinase-Nluc reporter destabilization hit call (ZAK) 0 | kinase-Nluc reporter destabilization hit call (ZAP70) 0
0: number of time points (ABL1) | number of time points (AKT1) | number of time points (ALK) | number of time points (ARAF) | number of time points (AURKA) | number of time points (AURKB) | number of time points (AURKC) | number of time points (BLK) | number of time points (BMX) | number of time points (BRAF) | number of time points (BRAF_V600E) | number of time points (BTK)

CCN(CC)CCCCNc1ncc2cc(-c3c(Cl)cccc3Cl)c(NC(=O)NC(C)(C)C)nc2n1 (2.5 µM)
inactive: kinase-Nluc reporter destabilization hit call (STK38) 0 | kinase-Nluc reporter destabilization hit call (SYK) 0 | kinase-Nluc reporter destabilization hit call (TEC) 0 | kinase-Nluc reporter destabilization hit call (TYK2) 0 | kinase-Nluc reporter destabilization hit call (ULK3) 0 | kinase-Nluc reporter destabilization hit call (YES1) 0 | kinase-Nluc reporter destabilization hit call (ZAK) 0 | kinase-Nluc reporter destabilization hit call (ZAP70) 0
3: number of time points (BMX)
0: number of time points (AKT1) | number of time points (ARAF) | number of time points (AURKB) | number of time points (AURKC) | number of time points (BRAF_V600E)
2: number of time points (ABL1) | number of time points (BRAF)
1: number of time points (ALK) | number of time points (AURKA) | number of time points (BLK) | number of time points (BTK)

From the supplement of paper PMC12823440, “Inhibitors supercharge kinase turnover through native proteolytic circuits” (Nature, 2025)
